{
  "source": "patent US10335446B2",
  "about": "“Methods of treating diseases using grape proteins” (priority 2015, dated 2019)",
  "experiment": "Diet-induced obesity (DIO) mice study: blood glucose, insulin, plasma lipids, body weight, food intake",
  "assay_type": "in vivo, C57BL/6J male mice",
  "details": "0-8 weeks, Atorvastatin 20 mg/kg, test articles tid po 10 mL/kg + ad libitum",
  "description": "The efficacy of RAAS products in mice was evaluated according to the following experimental design of therapeutics in diet-induced obesity (DIO) mice. DIO mice creation: After one-week acclimation, the mice are fed a high fat pelleted diet (D12492i; Research Diets, Inc) and fresh water, ad libitum. Typically, C57BL/6J male mice become obese, mildly to moderately hyperglycemic and develop impaired glucose tolerance after 12-14 weeks of high fat diet treatment. Mice are preferably 40-50 g or greater at the time of the study. Group setting (n=10, 4 mice for immunology): […] Body weight and food intake were recorded twice per week. BG, insulin, TG, HDL-C, LDL-C, and TCHO in plasma once per two weeks (baseline were tested before study start (FIG. 68)). Data were analyzed and graphed by Graph Pad Prism.",
  "data": [
    {"smiles": "CC(C)c1c(C(=O)Nc2ccccc2)c(-c2ccccc2)c(-c2ccc(F)cc2)n1CC[C@@H](O)C[C@@H](O)CC(=O)O", "note": "[Atorvastatin]", "values": [
      {"measurement": "plasma HDL level", "value": "significantly decrease"},
      {"measurement": "plasma LDL level", "value": "trend to decrease"},
      {"measurement": "plasma TCHO level", "value": "trend to decrease"},
      {"measurement": "plasma TG level", "value": "significantly decrease"}
    ]}
  ]
}
